Laboratory results taken from patent US8986696B2, “Trans-capsular administration of p38 map kinase inhibitors into orthopedic joints” (DePuy Mitek, Inc., priority 2007, dated 2015).
For at least one compound, name, drawing or mass did not settle the structure.

Legend:
[1] = tested on: IL-1β-stimulated NO production, bovine chondrocyte pellets / ARC tissues; assay: chondrocyte pellet culture model: total nitrite/nitrate (NO); format: cell-based
Text: (§1) Calf articular cartilage was obtained from the knee joints of eight to twelve month old animals and was processed within twenty-four hours after sacrifice. After removal of muscle and ligament, the cartilage was kept moist using phosphate buffer solution (PBS) to prevent tissue dehydration, and was aseptically peeled off from subchondral bone with a scalpel, and the cartilage pieces were further minced into smaller pieces (˜0.3-0.5×˜0.2-0.5 cm cubes). […] Chondrocytes were then enzymatically isolated from the tissue by incubation for overnight at 37° C. with gentle agitation in 0.2% collagenase in Dulbecco's modified eagle media (DMEM). After removal of tissue debris by filtration through cell strainer and the residual collagenase by 3× wash in PBS, cells were finally resuspended at a density of 2.5×10^6 cells/ml in chondrocyte medium. […]
Nitrate/Nitrite levels were measured using the Griess reaction (Green L. C. et al., “Analysis of Nitrate, Nitrite, and [15N]nitrate in Biological Fluids,” Anal. Biochem. 126: 131-138 (1982)) with aNitrate/Nitrite Colorimetric Assay Kit (Cayman Chemicals), the contents of which are incorporated herein by reference. […] Photometric measurement of the absorbance at 540 or 550 nm due to this azo chromophore accurately determined nitrite concentration. […]

[2] = tested on: IL-1β-stimulated GAG release, bovine chondrocyte pellets / ARC tissues; assay: chondrocyte pellet culture model: GAG degradation; format: cell-based; conditions: 7.5 ng/ml IL-1, five days, JNJ 7706621 at 5 μM
Text: as §1
Glycosaminoglycan (GAG) levels in the culture media were determined by measuring the amount of polyanionic material reacting with 1,9-dimethylmethylene blue (DME) as detected by absorbance at 525 nm, using shark chondroitin sulfate as a standard. The DME blue dye-binding solution was prepared by dissolving 16 mg of DME blue in a solution containing 0.304% glycine, 0.23% sodium chloride (NaCl), 9.5 mM hydrochloric acid (HCl), pH=3.0 with absorbance at 525 equal to 0.31. […]

[3] = tested on: IL-1β-stimulated PGE2 synthesis, bovine chondrocyte pellets / ARC tissues; assay: chondrocyte pellet culture model: PGE2; format: cell-based; conditions: 7.5 ng/ml IL-1, five days, JNJ 7706621 at 5 μM
Text: as §1, with “medium. A 1 ml aliquot of the cell suspension was dispensed into either a 15 ml Falcon centrifuge tube or a 96 deep-well plate and centrifuged at 2000×g for five minutes. The chondrocyte pellets were incubated at 37° C. in a humidified atmosphere of 5% CO2 for two to three weeks with a medium change every other day.” for “medium.”
Prostaglandin E2 (PGE2) was measured with a STAT-Prostaglandin E2 EIA ELISA kit (Cayman Biochemicals). […]

[4] = tested on: injured cartilage explants, GAG release; assay: drop tower design model: GAG release; format: cell-based, bovine; conditions: inflammatory conditions
Text: (§2) The device comprises a vertical rail that guides a sliding weight from 0.1 kg to 3 kg directly onto a force transducer which is situated at the bottom of the device. A sphere-shaped 2 mm indenter resting on a specimen is located at the bottom of the vertical rail. The indenter is held by a stop screw. The specimen is rigidly attached to a tissue holder underneath the indenter, to avoid side movements, the specimen is rigidly attached to the tissue holder. In this manner, the force transducer transduces a force indirectly onto the specimen. Adjusting the weight of a mass and height from which the mass drops varies the magnitude of the intended impact. […]
(§3) In the first method, bovine or human PBMCs were freshly prepared using Ficoll gradient by Lampire Biological Laboratories, Inc. PBMCs in RPMI w/10% FCS at delivery were spun down at 1500 rpm for twenty minutes and the cell pellet was washed twice with 1×PBS to wash off the residual Ficoll. […] Each conditioned medium was assessed for levels of pro-inflammatory cytokines to ensure their secretion from PBMC. […]
Glycosaminoglycan (GAG) levels in the culture media or cartilage were determined by measuring the amount of polyanionic material reacting with 1,9-dimethylmethylene blue (DME) as detected by absorbance at 525 nm, using shark chondroitin sulfate as a standard. […]

[5] = tested on: injured cartilage explants, NO production; assay: drop tower design model: NO production; format: cell-based, bovine; conditions: cocktail of cytokines
Text: as §2, §3
Nitrate/Nitrite was measured using the Griess reaction (Green L. C. et al., “Analysis of Nitrate, Nitrite, and [15N]nitrate in Biological Fluids,” Anal. Biochem. 126: 131-138 (1982)) with a Nitrate/Nitrite Colorimetric Assay Kit (Cayman Chemicals), as described in Example III above.

Row | Structure (SMILES) | NO production ([1]; ARC, 7.5 ng/ml IL-1, five days, JNJ 7706621 at 5 μM) | GAG release [2] | PGE2 synthesis [3] | GAG, inhibition of degradation/release [4] | NO production ([1]; diacerein at 5.4 μM, rhein at 0.35 μM, 10 ng/ml IL-1β) | NO production, inhibition [5]
1 | CO[C@H]1C[C@@H]2CC[C@@H](C)[C@@](O)(O2)C(=O)C(=O)N2CCCC[C@H]2C(=O)O[C@H]([C@H](C)C[C@@H]2CC[C@@H](O)[C@H](OC)C2)CC(=O)[C@H](C)/C=C(\C)[C@@H](O)[C@@H](OC)C(=O)[C@H](C)C[C@H](C)/C=C/C=C/C=C/1C [Rapamycin, reference compound] | inhibited | inhibited | inhibited | completely |  | 
2 | O=C(O)c1cc(O)c2c(c1)C(=O)c1cccc(O)c1C2=O [Rhein, reference compound] |  |  |  | completely inhibited | significantly inhibited | 
3 | CNC(=O)[C@H](Cc1ccccc1)NC(=O)[C@H](CC(C)C)[C@H](CSc1cccs1)C(=O)NO [Batimastat] |  |  |  |  |  | did inhibit
